Data on one molecule can be found in KR20160117808A.

In this assay the target is sCD40L (Biolegend, USA). The experiment in a line: sandwich ELISA, RM9C3 coated (10ug/ml), sCD40L, detection with 5C8-Biotin. On the technique in general: An ELISA detects its analyte on a solid surface through an enzyme-linked reagent.

These are yes or no findings as the source states them, for the method shown. A result given as binding can be weak or reduced; the word gives no strength.

B1: RM9C3 융합 세포주가 생산하는 항 원숭이 CD154 항체 (antibody, V domains shown)
VH: EVQLQQSGPELVKPGASVKISCKTSGYTFTEYTIHWVKQSHGESLEWIGGIYPNTGGTNYNQKFKGKATLTVDKSSSTVYMEFRGLTSEDSAVYYCARLLFDCDVDWFAYWGQGTLVTVSA
VL: NIVMTQTPKFLLVSAGDRITITCKASQSVNNNVAWYHQKPGQSPKLLIYYASNRYIGVPDRFTGSGYGTDFTFTISTVQAEDLAVYFCQQDHSSLTFGAGTKLELKR
Take B1: the binding entry was “binds”.
